Test results taken from patent publication US5155215A, “Polychelating agents for image and spectral enhancement (and spectral shift)” (priority 1990, dated 1992).
At least one compound was matched to its structure with a doubt left.

Test: In vitro T1 relaxation of water protons (IBM PC 20 Minispectrometer, 20 MHz)
Format: physicochemical
Settings: Fe+3 chelates; read-out: T1 (ID50), Fe

O=C([O-])CN(CCN(CCN(CC(=O)[O-])CC(=O)O)CC(=O)O)CC(=O)[O-].[Fe+3] [Fe:DTPA] gave an IC50 of 370 µM.
